No constants are given. Whether binding was seen depends on the method and setting. Binding seen in cells or lysates may run through a third protein. These calls come from enrichment with a bait or labelling near it, and not all partners need be listed.

By UniProt entry, the sequences of proteins in these tests, tags left out. Residues count along the entry.
UniProt Q8NE86, residues 51-351: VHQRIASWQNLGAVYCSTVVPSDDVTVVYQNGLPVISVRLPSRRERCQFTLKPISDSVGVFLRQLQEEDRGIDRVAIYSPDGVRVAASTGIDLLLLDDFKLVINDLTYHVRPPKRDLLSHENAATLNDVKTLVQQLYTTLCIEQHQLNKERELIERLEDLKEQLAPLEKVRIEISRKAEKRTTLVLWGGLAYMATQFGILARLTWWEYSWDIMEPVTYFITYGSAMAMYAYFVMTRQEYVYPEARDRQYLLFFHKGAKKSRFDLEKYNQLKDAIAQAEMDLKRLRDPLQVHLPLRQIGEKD
UniProt O95167: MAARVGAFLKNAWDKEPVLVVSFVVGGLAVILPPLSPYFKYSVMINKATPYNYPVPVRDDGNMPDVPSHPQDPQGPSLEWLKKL
UniProt P51970: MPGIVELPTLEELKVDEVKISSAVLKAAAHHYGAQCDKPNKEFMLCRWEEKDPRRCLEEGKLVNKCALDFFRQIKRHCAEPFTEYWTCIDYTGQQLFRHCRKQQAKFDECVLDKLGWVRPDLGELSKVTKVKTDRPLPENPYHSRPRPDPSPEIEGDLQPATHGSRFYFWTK
UniProt Q9P0J0: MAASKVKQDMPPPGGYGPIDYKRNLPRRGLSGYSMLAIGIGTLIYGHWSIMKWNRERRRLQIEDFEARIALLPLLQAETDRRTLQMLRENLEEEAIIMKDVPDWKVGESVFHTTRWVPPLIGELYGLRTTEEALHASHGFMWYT

We go through three substances from article PMC9120069.

In this assay the target is Flag-tagged MCU (pore-forming subunit of the mitochondrial calcium uniporter) (UniProt Q8NE86). The assay can be described thus: affinity purification with mass spectrometry; FLAG antibody beads on cleared lysates of HEK293T cells stably expressing MCU-Flag; 1% digitonin, 50 mM Tris, 150 mM NaCl; overnight at 4 °C; eluted in 2% SDS; six MCU-Flag samples and four non-transduced control samples.
Regarding NDUFA3 (from UniProt O95167 1-84), the binding entry is reported as “binds”.

NDUFA8 (from UniProt P51970 1-172): the binding result is recorded as “binds”.

Turning to NDUFA13 (from UniProt Q9P0J0 1-144), the binding entry was “binds”.
